The structures appear in SMILES notation.

One compound from article PMC6211276, “Computer-aided molecular design of pyrazolotriazines targeting glycogen synthase kinase 3” (Journal of Enzyme Inhibition and Medicinal Chemistry, 2018) can be followed below.

A short description of this data set: In vitro parallel artificial membrane permeability assay (PAMPA-BBB). The settings on record: pig, pH 7.4. The procedure: Prediction of the brain penetration was evaluated using a parallel artificial membrane permeability assay (PAMPA). Ten commercial drugs, phosphate buffer saline solution at pH 7.4 (PBS), ethanol, and dodecane were purchased from Sigma Aldrich, Across organics and Fluka. […] Filter PDVF membrane units (diameter 30 mm, pore size 0.45 μm) from Symta were used to filter the samples. A 96-well plate UV, (Thermoscientific, Varioskan Lux multimode microplate reader) was used for the UV measurements. […] Then 100 μL of this compound stock solution was taken, and 1400 μL of ethanol and 3500 μL of PBS pH 7.4 buffer were added to reach 30% of ethanol concentration in the experiment. These solutions were filtered. The acceptor 96-well microplate was filled with 180 μL of PBS:ethanol (70:30). The donor 96-well plate was coated with 4 μL of porcine brain lipid in dodecane (20 mg mL^−1), and after 5 min, 180 μL of each compound solution was added. Then 1−2 mg of every compound to be determined for their ability to pass the brain barrier were dissolved in 1500 μL of ethanol and 3500 μL of PBS pH 7.4 buffer, filtered, and then added to the donor 96-well plate. […] The concentration of compounds and commercial drugs in the acceptor and the donor wells was determined by UV plate reader. Every sample was analysed at three to five wavelengths, in three wells and in three independent runs. […]

In general, Papp refers to the rate of passage across a membrane or cell layer, normalised by area and donor concentration. A lower Papp goes with poor permeation. Consider `CC(C)NCC(O)COc1ccc(CC(N)=O)cc1` (stereo not shown) [Atenolol, reference compound], for which the Papp at 4 h came out at 0.6 ± 0.4 ×10⁻⁶ cm/s.
